Results taken from PubChem BioAssay AID540256 (National Center for Advancing Translational Sciences (NCATS), 2011).
Hit rate of the full screen: of about 300,000 compounds, about 3,700 (1.2%) were called active. Inconclusive means that the source gave no clear call. Such entries were picked first, then a sample of the others. Calls follow the shape of the full dose curve; tested in HEK293 cells. A potency beside an inconclusive call is a rough fit, not a confirmed value.

Assay: qHTS for Inhibitors of binding or entry into cells for Lassa Virus; also: nearly all actives have a fitted effect of over 50% in size
Settings: Lassa virus pseudotype entry inhibition, cell reporter; activity change, negative = inhibition: at 37.9 µM (top of the series) unless noted
% is scaled to controls: 0 for no effect and ±100 for the full control effect; potency is read from the fitted curve at half-maximal effect.

Q: With `Cc1cccc(NC(=O)CS(=O)(=O)c2cn(CC(=O)N3CCOCC3)c3ccccc23)c1` as the compound, how does the Potency read?
A: The Potency was inconclusive: 10 µM [activator, partial curve].

Q: Which Potency does the source give for `FC(F)(F)c1ccc2c(c1)N(CCCN1CCN(CCCl)CC1)c1ccccc1S2` here?
A: Its Potency is inconclusive: 35.5 µM [inhibitor, single point].

Q: With `CCCNC(=O)COC(=O)c1ccccc1C(=O)c1ccc(Cl)c([N+](=O)[O-])c1` as the compound, how does the Potency read?
A: The Potency was inconclusive: 12.6 µM [inhibitor, single point].

Q: With `COc1cc(C(=O)OCC(=O)NC23CC4CC(CC(C4)C2)C3)cc(OC)c1OC` as the compound, how does the Potency read?
A: The Potency was inconclusive: 7.08 µM [inhibitor, partial curve, poor fit].

Q: For `CCOc1ccccc1-n1nnnc1SCc1nc2ccccc2s1`, which “activity change, negative = inhibition” value is on record?
A: The value was inactive: 5.13%.

Q: With `CC(C)(CO)NS(=O)(=O)c1ccc2c(c1)C(=NO)c1cc(S(=O)(=O)NC(C)(C)CO)ccc1-2` as the compound, how does the Potency read?
A: The Potency was inconclusive: 3.98 µM [inhibitor, partial curve, poor fit].

Q: With `Clc1ccc(SCc2cc(N3CCOCC3)nc(-c3ccccn3)n2)cc1` as the compound, how does the Potency read?
A: The Potency was inconclusive: 7.94 µM [inhibitor, partial curve, poor fit].

Q: With `COc1ccccc1NC(=O)C(=O)NCCCN1CCCC1=O` as the compound, how does the Potency read?
A: The Potency was inconclusive: 3.16 µM [activator, full curve, poor fit].

Q: For `O=C(NNC(=S)Nc1ccc(Br)cc1Cl)c1ccncc1`, which Potency is on record?
A: The Potency was inconclusive: 35.5 µM [activator, single point].

Q: With `O=C(c1cc2ccccc2oc1=O)N(Cc1cccc(Br)c1)C1CCS(=O)(=O)C1` (stereo not drawn) as the compound, how does the “activity change, negative = inhibition” value read?
A: The value was inactive: 1.38% [at 46.1 µM].

Q: For `C=CCOc1ccc(CNc2ccc3[nH]c(=O)[nH]c3c2)cc1OC`, which Potency is on record?
A: Its Potency is inconclusive: 7.08 µM [activator, partial curve, poor fit].

Q: With `Cc1noc(C)c1C(=O)N1CCC(C(=O)c2ccccc2)CC1` as the compound, how does the “activity change, negative = inhibition” value read?
A: The value was inactive: -12.6%.

Q: With `O=C(CON=C1c2ccccc2-c2ccccc21)NC12CC3CC(CC(C3)C1)C2` as the compound, how does the Potency read?
A: The Potency was inconclusive: 35.5 µM [inhibitor, single point].

Q: For `CCOc1cc2[nH]c(=O)n(CCC(=O)N3CCN(c4ccccc4OC)CC3)c(=O)c2cc1OCC`, which “activity change, negative = inhibition” value is on record?
A: Its value is inactive: -7.43%.

Q: Which “activity change, negative = inhibition” value does the source give for `FC(F)(F)c1ccnc(N2CCN(Cc3cnc(-c4ccccc4)[nH]3)CC2)c1` here?
A: Its value is inactive: 14.5%.

Q: Which Potency does the source give for `COc1ccc(S(=O)(=O)N(CCCN2CCOCC2)Cc2cccc3ccccc23)cc1` here?
A: The Potency was inconclusive: 7.94 µM [inhibitor, partial curve].

Q: Which Potency does the source give for `COc1ccc(N(C(C)C(=O)Nc2ccc(S(=O)(=O)N3CCCCC3)cc2)S(C)(=O)=O)cc1` (stereo not drawn) here?
A: The Potency was inconclusive: 35.5 µM [inhibitor, single point].

Q: Which Potency does the source give for `Cc1ccc(S(=O)(=O)n2nc(C)c(Br)c2C)c(C)c1C` here?
A: Its Potency is inconclusive: 35.5 µM [inhibitor, partial curve, poor fit].

Q: With `O=C(Nc1ccc2c(c1)OCCO2)c1ccc(Br)o1` as the compound, how does the Potency read?
A: The Potency was inconclusive: 20 µM [inhibitor, partial curve, poor fit].

Q: With `COCCn1c(SCC(=O)N2CC(=O)Nc3ccccc32)nc2ccccc2c1=O` as the compound, how does the Potency read?
A: The Potency was inconclusive: 3.66 µM [inhibitor, partial curve, poor fit].

Q: Which “activity change, negative = inhibition” value does the source give for `COc1ccc(-n2nc3c(c2NC(=O)C(=O)NCc2ccccc2)CSC3)cc1` here?
A: The value was inactive: -23.4% [at 46.1 µM].

Q: For `CCSc1nnc(NC(=O)Nc2cccc(C)c2)s1`, which Potency is on record?
A: Its Potency is inconclusive: 35.5 µM [inhibitor, single point].

Q: With `Cc1ccc(Cc2cnc(N3C(=N)SC(c4ccccc4)C3=O)s2)cc1` (stereo not drawn) as the compound, how does the “activity change, negative = inhibition” value read?
A: Its value is inactive: 18.4%.

Q: Which Potency does the source give for `COc1ccc(C=C2SC(=S)NC2=O)c(OC)c1OC` here?
A: The Potency was inconclusive: 1.12 µM [activator, partial curve, poor fit].

Q: Which Potency does the source give for `Cc1ccc(-n2nnnc2-c2cnc(N3CCCC3)nc2C(F)(F)F)cc1` here?
A: Its Potency is inconclusive: 20.6 µM [inhibitor, single point].

Q: For `O=c1cc(CO)oc(C(Nc2ccccn2)c2ccccc2Cl)c1O` (stereo not drawn), which “activity change, negative = inhibition” value is on record?
A: The value was inactive: -14.7% [at 46.1 µM].

Q: For `Cc1cc(C(=O)Nc2cccc(C(=O)O)c2)c(C)o1`, which “activity change, negative = inhibition” value is on record?
A: The value was inactive: 15.3%.

Q: Which Potency does the source give for `Cc1[nH]c(-c2ccc(F)cc2)cc1C(=O)N1CCN(c2ccccc2F)CC1` here?
A: The Potency was inconclusive: 15.8 µM [inhibitor, single point].

Q: Which Potency does the source give for `O=C(O)CCn1cc(/C=C/C(=O)c2ccc(Cl)cc2)c(-c2cccc(Br)c2)n1` here?
A: Its Potency is inconclusive: 11.2 µM [inhibitor, partial curve, poor fit].

Q: Which Potency does the source give for `COc1ccc(NC(NC(=O)c2ccc(OC)cc2)C(Cl)(Cl)Cl)cc1` (stereo not drawn) here?
A: The Potency was inconclusive: 15.8 µM [inhibitor, single point].

Q: Which “activity change, negative = inhibition” value does the source give for `C/C(=N\NC(=S)NC1CCCCC1)c1cccs1` here?
A: Its value is inactive: -14.2%.

Q: Which Potency does the source give for `CC1(C)Cc2c(ccc3ccccc23)C(c2cc3ccccc3oc2=O)=N1` here?
A: Its Potency is active: 13 µM.

Q: For `Cc1ccc2cc(C(c3nnnn3C3CCCC3)N(Cc3ccccc3)Cc3ccco3)c(=O)[nH]c2c1` (stereo not drawn), which Potency is on record?
A: The Potency was inconclusive: 14.6 µM [inhibitor, partial curve, poor fit].

Q: Which Potency does the source give for `CC(=O)Nc1ccc(S(=O)(=O)N(Cc2ccccc2)c2ccccc2)cc1` here?
A: Its Potency is inconclusive: 35.5 µM [inhibitor, single point].

Q: Which Potency does the source give for `O=C(Nc1ccc2nc3n(c(=O)c2c1)CCCC3)c1cc([N+](=O)[O-])ccc1F` here?
A: The Potency was active: 3.26 µM.

Q: For `O=C(/C=C/c1ccco1)OCn1nnc2ccccc2c1=O`, which “activity change, negative = inhibition” value is on record?
A: Its value is inactive: 5.19%.

Q: Which Potency does the source give for `O=C(CSCc1ccc(Cl)cc1)Nc1cc([N+](=O)[O-])ccc1O` here?
A: Its Potency is inconclusive: 15.8 µM [inhibitor, single point].

Q: For `CC1(C)CC(=O)c2c(oc3ccc(NS(=O)(=O)c4cccc5cccnc45)cc23)C1`, which Potency is on record?
A: The Potency was inconclusive: 12.6 µM [inhibitor, single point].

Q: With `O=C(CSc1nc2ccccc2c2nc(-c3ccccc3)nn12)Nc1ccc(F)cc1` as the compound, how does the “activity change, negative = inhibition” value read?
A: The value was inactive: 12.2% [at 46.1 µM].

Q: For `CC(=O)c1cccc(NC(=O)c2cc3nc(C)cc(C)n3n2)c1`, which “activity change, negative = inhibition” value is on record?
A: Its value is inactive: -12.6%.

Q: Which “activity change, negative = inhibition” value does the source give for `COc1ccc(-c2cc(C(C)=O)c(C)n2CCC(=O)Nc2cccc(C)c2C)cc1` here?
A: Its value is inactive: 11.4% [at 46.1 µM].

Q: For `C=CCOP1(=O)O[C@H](CC=C)C[C@H](CC=C)O1` (stereo partly drawn), which Potency is on record?
A: Its Potency is inconclusive: 35.3 µM [activator, single point].

Q: For `O=C(c1ccccc1Br)N(Cc1ccccc1)c1ccccc1`, which Potency is on record?
A: The Potency was inconclusive: 17.8 µM [inhibitor, single point].
